From publication PMC10421354
These are yes or no findings as the source states them, for the method shown. In cells and extracts the contact can be indirect. A yes stands for co-enrichment or nearness to the bait. Other partners may have been found. Where a sequence is shown, tags or fusion partners need not be part of it.

Biological target: T1, NSP2-GFP (nitrile-specific protein 2 tagged with GFP) (Arabidopsis thaliana) (UniProt O49326)
T1 sequence: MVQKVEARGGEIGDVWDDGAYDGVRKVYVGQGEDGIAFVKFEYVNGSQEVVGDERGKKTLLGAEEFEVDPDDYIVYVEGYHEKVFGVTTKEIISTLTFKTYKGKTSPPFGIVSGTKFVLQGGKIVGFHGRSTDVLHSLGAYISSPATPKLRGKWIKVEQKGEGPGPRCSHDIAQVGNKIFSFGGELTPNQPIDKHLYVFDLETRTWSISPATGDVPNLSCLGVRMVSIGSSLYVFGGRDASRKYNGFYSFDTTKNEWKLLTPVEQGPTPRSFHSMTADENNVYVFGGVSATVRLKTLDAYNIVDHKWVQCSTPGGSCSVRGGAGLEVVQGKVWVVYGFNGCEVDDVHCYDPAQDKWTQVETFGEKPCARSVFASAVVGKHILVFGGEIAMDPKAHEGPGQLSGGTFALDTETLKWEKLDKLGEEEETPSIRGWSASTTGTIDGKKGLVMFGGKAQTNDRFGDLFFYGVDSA
Assay: affinity purification with mass spectrometry; IP-MS from NSP2 transgenic Arabidopsis plants tagged with GFP; NSP2-GFP as bait

binding: binds
B1: MPK3 (protein, UniProt Q39023 1-370)
chain: MNTGGGQYTDFPAVETHGGQFISYDIFGSLFEITSKYRPPIIPIGRGAYGIVCSVLDTETNELVAMKKIANAFDNHMDAKRTLREIKLLRHLDHENIIAIRDVVPPPLRRQFSDVYISTELMDTDLHQIIRSNQSLSEEHCQYFLYQLLRGLKYIHSANIIHRDLKPSNLLLNANCDLKICDFGLARPTSENDFMTEYVVTRWYRAPELLLNSSDYTAAIDVWSVGCIFMELMNRKPLFPGKDHVHQMRLLTELLGTPTESDLGFTHNEDAKRYIRQLPNFPRQPLAKLFSHVNPMAIDLVDRMLTFDPNRRITVEQALNHQYLAKLHDPNDEPICQKPFSFEFEQQPLDEEQIKEMIYQEAIALNPTYG
